Data as given in US20030219740A1.
These are yes or no findings as the source states them, for the method shown. Some binding calls cover weakened binding; strength is not graded here. Where a sequence is shown, tags or fusion partners need not be part of it. Each block holds one binder with its values, some of them ahead of it.

The chains behind the UniProt entries cited, without tags or fusion partners. Where a name states a change or a piece, a line headed by the entry shows the natural chain unless it says otherwise.
UniProt P04386: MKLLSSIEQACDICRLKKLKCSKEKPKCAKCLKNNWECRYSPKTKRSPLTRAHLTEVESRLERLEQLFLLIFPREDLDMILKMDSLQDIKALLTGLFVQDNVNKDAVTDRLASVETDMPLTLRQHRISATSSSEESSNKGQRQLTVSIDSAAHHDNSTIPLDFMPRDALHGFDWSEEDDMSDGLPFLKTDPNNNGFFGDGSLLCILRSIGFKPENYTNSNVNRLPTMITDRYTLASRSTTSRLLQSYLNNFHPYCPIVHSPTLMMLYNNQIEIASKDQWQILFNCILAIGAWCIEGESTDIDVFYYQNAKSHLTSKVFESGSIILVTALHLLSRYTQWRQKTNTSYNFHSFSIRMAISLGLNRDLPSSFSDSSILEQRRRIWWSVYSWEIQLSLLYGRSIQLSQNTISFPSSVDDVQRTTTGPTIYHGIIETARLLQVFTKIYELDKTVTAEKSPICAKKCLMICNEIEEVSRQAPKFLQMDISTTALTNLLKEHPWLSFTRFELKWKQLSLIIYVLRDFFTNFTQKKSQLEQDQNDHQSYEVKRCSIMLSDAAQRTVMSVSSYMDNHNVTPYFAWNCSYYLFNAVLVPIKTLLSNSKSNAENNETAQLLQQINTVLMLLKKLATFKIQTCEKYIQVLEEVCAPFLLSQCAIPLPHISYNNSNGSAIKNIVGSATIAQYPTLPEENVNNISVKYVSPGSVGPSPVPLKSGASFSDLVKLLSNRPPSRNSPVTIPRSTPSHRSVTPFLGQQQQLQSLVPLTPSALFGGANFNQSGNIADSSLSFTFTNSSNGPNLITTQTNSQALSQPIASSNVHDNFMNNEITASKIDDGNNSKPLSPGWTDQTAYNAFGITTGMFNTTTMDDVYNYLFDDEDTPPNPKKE

Target: GAL4-BD fusion of a fragment of the E12 gene consisting of nucleotides 1528-1962 that encode the bHLH motif (UniProt P04386)
Experiment: yeast two-hybrid screen (HIS3 selection, β-galactosidase filter assay)

binding: binds
B1: id2 (GAL4-AD library fusion) (protein, UniProt Q02363 1-134, looked up, not shown: large carriers)
chain: MKAFSPVRSVRKNSLSDHSLGISRSKTPVDDPMSLLYNMNDCYSKLKELVPSIPQNKKVSKMEILQHVIDYILDLQIALDSHPTIVSLHHQRPGQNQASRTPLTTLNTDISILSLQASEFPSELMSNDSKALCG

binding: binds
B2: id3 (GAL4-AD library fusion) (protein, UniProt Q02535 1-119, looked up, not shown: large carriers)
chain: MKALSPVRGCYEAVCCLSERSLAIARGRGKGPAAEEPLSLLDDMNHCYSRLRELVPGVPRGTQLSQVEILQRVIDYILDLQVVLAEPAPGPPDGPHLPIQTAELTPELVISNDKRSFCH

binding: binds
B3: id1 (GAL4-AD library fusion) (protein, UniProt P41134 1-155, looked up, not shown: large carriers)
chain: MKVASGSTATAAAGPSCALKAGKTASGAGEVVRCLSEQSVAISRCAGGAGARLPALLDEQQVNVLLYDMNGCYSRLKELVPTLPQNRKVSKVEILQHVIDYIRDLQLELNSESEVGTPGGRGLPVRAPLSTLNGEISALTAEAACVPADDRILCR
